Measurements as given in paper PMC2734569, “Functional mapping of the fission yeast DNA polymerase δ B-subunit Cdc1 by site-directed and random pentapeptide insertion mutagenesis” (BMC Molecular Biology, 2009).
Results are given in words; binding and its absence hold for the method and conditions named. Sequences can lack the tags named with a protein.

Assays:
[1] = target: T1, Cdc1-J12 (Schizosaccharomyces pombe, UniProt P87324 1-462, Ser-GlyValProHisSer-Ile); assay: two-hybrid; LexA-Cdc1 bait (pBTM116 or pBTM116BN) with Gal4-Pol3 prey and co-expressed c-myc-tagged Cdc27 (pAA-Cdc27) in S. cerevisiae CTY10-5d; ONPG liquid culture beta-galactosidase assay, mean of triplicates, as percent of wild-type Cdc1
T1 construct: Cdc1, S. pombe, with a pentapeptide inserted after residue 7; source: yeast two-hybrid fusion, in S. cerevisiae CTY10-5d
T1 sequence (looked up): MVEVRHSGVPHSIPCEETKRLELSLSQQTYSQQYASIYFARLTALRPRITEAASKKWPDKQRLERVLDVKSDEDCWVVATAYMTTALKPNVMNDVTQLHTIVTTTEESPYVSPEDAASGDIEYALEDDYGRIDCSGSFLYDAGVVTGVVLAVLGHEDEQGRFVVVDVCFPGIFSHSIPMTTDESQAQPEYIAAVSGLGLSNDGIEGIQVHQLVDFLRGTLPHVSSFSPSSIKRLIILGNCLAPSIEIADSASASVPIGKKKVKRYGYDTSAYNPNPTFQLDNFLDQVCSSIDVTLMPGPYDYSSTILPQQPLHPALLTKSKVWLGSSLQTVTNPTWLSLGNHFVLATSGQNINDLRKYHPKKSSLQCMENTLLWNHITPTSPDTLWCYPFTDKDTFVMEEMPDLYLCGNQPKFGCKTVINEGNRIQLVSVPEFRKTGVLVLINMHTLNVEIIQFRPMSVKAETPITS

[2] = target: T2, Cdc1-A10 (Schizosaccharomyces pombe, UniProt P87324 1-462, Asn328Ala | Pro329Ala); assay: as above
T2 construct: Cdc1, S. pombe, double point mutant (A5 and A6 combined); source: yeast two-hybrid fusion, in S. cerevisiae CTY10-5d
T2 sequence (looked up): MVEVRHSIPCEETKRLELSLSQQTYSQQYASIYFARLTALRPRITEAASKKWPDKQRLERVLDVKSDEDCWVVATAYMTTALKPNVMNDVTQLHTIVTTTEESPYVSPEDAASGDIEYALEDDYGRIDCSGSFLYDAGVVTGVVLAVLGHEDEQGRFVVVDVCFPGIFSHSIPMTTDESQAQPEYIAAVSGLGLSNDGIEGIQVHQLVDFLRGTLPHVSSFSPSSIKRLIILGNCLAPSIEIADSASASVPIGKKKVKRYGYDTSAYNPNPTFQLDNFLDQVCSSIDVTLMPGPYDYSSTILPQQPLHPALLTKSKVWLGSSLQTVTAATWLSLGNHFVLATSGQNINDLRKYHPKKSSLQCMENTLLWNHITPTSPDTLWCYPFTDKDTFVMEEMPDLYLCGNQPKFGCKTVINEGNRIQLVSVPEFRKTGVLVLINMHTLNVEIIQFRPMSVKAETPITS

[3] = target: T3, Cdc1-J2 (Schizosaccharomyces pombe, UniProt P87324 1-462, Tyr-ArgGlyThrProTyr-Ser); assay: two-hybrid; LexA-Cdc1 bait (pBTM116 or pBTM116BN) with Gal4 activation domain-Cdc27 prey (pGAD2F-Cdc27) in S. cerevisiae CTY10-5d; ONPG liquid culture beta-galactosidase assay, mean of triplicates, as percent of wild-type Cdc1
T3 construct: Cdc1, S. pombe, with a pentapeptide inserted after residue 25; also called J18; J20; source: yeast two-hybrid fusion, in S. cerevisiae CTY10-5d
T3 sequence (looked up): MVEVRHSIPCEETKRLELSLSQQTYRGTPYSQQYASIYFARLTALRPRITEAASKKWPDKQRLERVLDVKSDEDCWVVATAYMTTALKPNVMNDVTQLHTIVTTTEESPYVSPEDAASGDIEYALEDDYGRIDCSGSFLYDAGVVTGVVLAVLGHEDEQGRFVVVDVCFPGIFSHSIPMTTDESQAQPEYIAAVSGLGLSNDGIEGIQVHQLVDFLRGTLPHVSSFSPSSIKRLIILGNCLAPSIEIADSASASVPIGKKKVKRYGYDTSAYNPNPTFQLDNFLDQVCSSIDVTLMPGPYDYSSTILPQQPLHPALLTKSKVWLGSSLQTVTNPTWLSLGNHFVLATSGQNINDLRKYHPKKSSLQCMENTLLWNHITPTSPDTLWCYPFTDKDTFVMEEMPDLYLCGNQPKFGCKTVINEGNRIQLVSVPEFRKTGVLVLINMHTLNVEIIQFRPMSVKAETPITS

[4] = target: T4, Cdc1-J3 (Schizosaccharomyces pombe, UniProt P87324 1-462, Leu-GlyValProLeuLeu-Asp); assay: as above
T4 construct: Cdc1, S. pombe, with a pentapeptide inserted after residue 62; also called E3; E8; source: yeast two-hybrid fusion, in S. cerevisiae CTY10-5d
T4 sequence (looked up): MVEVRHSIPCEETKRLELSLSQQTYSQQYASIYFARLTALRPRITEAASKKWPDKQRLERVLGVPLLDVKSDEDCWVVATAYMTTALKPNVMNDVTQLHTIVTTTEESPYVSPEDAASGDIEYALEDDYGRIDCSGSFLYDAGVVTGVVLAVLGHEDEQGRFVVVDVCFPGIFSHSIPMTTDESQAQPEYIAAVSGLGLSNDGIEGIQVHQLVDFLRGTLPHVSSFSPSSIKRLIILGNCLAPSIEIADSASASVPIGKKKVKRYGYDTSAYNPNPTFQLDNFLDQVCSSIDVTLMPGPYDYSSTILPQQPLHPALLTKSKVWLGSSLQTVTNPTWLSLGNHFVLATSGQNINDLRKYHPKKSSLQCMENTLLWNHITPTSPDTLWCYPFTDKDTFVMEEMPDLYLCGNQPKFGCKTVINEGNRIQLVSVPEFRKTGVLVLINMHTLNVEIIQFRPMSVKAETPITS

B1: Pol3 (fission yeast DNA polymerase delta catalytic subunit) (natural protein, Schizosaccharomyces pombe, UniProt P30316 1-1086, looked up)
chain: MTDRSSNEGVVLNKENYPFPRRNGSIHGEITDVKRRRLSERNGYGDKKGSSSKEKTSSFEDELAEYASQLDQDEIKSSKDQQWQRPALPAINPEKDDIYFQQIDSEEFTEGSVPSIRLFGVTDNGNSILVHVVGFLPYFYVKAPVGFRPEMLERFTQDLDATCNGGVIDHCIIEMKENLYGFQGNEKSPFIKIFTTNPRILSRARNVFERGEFNFEELFPVGVGVTTFESNTQYLLRFMIDCDVVGMNWIHLPASKYQFRYQNRVSNCQIEAWINYKDLISLPAEGQWSKMAPLRIMSFDIECAGRKGVFPDPSIDPVIQIASIVTQYGDSTPFVRNVFCVDTCSQIVGTQVYEFQNQAEMLSSWSKFVRDVDPDVLIGYNICNFDIPYLLDRAKSLRIHNFPLLGRIHNFFSVAKETTFSSKAYGTRESKTTSIPGRLQLDMLQVMQRDFKLRSYSLNAVCSQFLGEQKEDVHYSIITDLQNGTADSRRRLAIYCLKDAYLPQRLMDKLMCFVNYTEMARVTGVPFNFLLARGQQIKVISQLFRKALQHDLVVPNIRVNGTDEQYEGATVIEPIKGYYDTPIATLDFSSLYPSIMQAHNLCYTTLLDSNTAELLKLKQDVDYSVTPNGDYFVKPHVRKGLLPIILADLLNARKKAKADLKKETDPFKKAVLDGRQLALKVSANSVYGFTGATNGRLPCLAISSSVTSYGRQMIEKTKDVVEKRYRIENGYSHDAVVIYGDTDSVMVKFGVKTLPEAMKLGEEAANYVSDQFPNPIKLEFEKVYFPYLLISKKRYAGLFWTRTDTYDKMDSKGIETVRRDNCPLVSYVIDTALRKMLIDQDVEGAQLFTKKVISDLLQNKIDMSQLVITKALSKTDYAAKMAHVELAERMRKRDAGSAPAIGDRVAYVIIKGAQGDQFYMRSEDPIYVLENNIPIDAKYYLENQLSKPLLRIFEPILGEKASSLLHGDHTRTISMAAPSVGGIMKFAVKVETCLGCKAPIKKGKTALCENCLNRSAELYQRQVAQVNDLEVRFARLWTQCQRCQGSMHQDVICTSRDCPIFYMRIAEHKKLQQSVDLLKRFDEMSW
notes: DNA polymerase delta catalytic subunit Pol3, S. pombe; prey plasmid named pACT-Pol3 in the results and pGAD2F-Pol3 in the methods; also called Gal4-Pol3; pACT-Pol3; source: yeast two-hybrid fusion, in S. cerevisiae CTY10-5d
What does the source list for B1?
binding [1]: no binding (tested: <1% of wild type (Table 1)); binding [2]: no binding (tested: <1% of wild type (Table 1))

B2: Cdc27 (fission yeast DNA polymerase delta C-subunit) (natural protein, Schizosaccharomyces pombe, UniProt P30261 1-372, looked up)
chain: MEEWRNFLDIKVINESSLVTVDNLSLQLDISSEKAQEYLNMFYQGNDFLYPIYLIHGQPIDDEINLEIDEESQPISNFPVLQYILCDKSSLQEKQSRLKSGYKTVIFALSSAPLSDFDELLPAVYEIREKDVLYKKEDADKYGFIFNENSVPRVLKKAPSTHSPQLSVPSKTSTIDKTDTRSTEKTKGKDIFSNARNQKGNSSRKNKKAPLENHKEKEPLLPKEEKLSEQAKRERDDLKNIMQLEDESVSTTSVHDSEDDNLDSNNFQLEIGTEAKSAAPDEPQEIIKSVSGGKRRGKRKVKKYATTKDEEGFLVTKEEEVWESFSEDENISTGTSNVVRNKPTTVNIATKKKNTAQSKPQQKSIMSFFGKK
notes: DNA polymerase delta C-subunit Cdc27, S. pombe; prey plasmid pGAD2F-Cdc27; also called pGAD2F-Cdc27; source: yeast two-hybrid fusion, in S. cerevisiae CTY10-5d
Which binding [3] does the source give for B2 here?
The binding was “no binding (tested: <1% of wild type (Table 1))”.

And the binding [4]?
The binding was “no binding (tested: <1% of wild type (Table 1))”.
